## Library screening results

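Whole-cell assay for inhibitors of Mycobacterium tuberculosis growth, labelled Cornell in the record; the read-out is not stated. The concentration is filed as 10 mM, unlikely as a test dose, so the dose is not known. Higher means stronger inhibition (inferred from two other growth screens of the library). About 53,000 compounds were tested under these conditions; 1.7% (about 900) showed 50% or more at least once.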

The filed quantity is “Percent Effect” (%).
How 0% and 100% were set is not recorded. Most values in the screen are low, and negative values occur.
The compounds are a random part of those screened.

{"structure": "Cc1ccc2nc(C)cc(C(=O)NC(C)c3nnn[nH]3)c2c1", "stereo": "configuration not stated", "percent effect": 26.48}
{"structure": "CN1CCc2c(C#N)c(NCc3ccccc3)n3cnnc3c2C1", "percent effect": -4.777}
{"structure": "CC1CN(c2ccc(CNC(=O)NCCO)cn2)CCO1", "stereo": "configuration not stated", "percent effect": 2.175}
{"structure": "CCN1CCCC12CCCN(c1ncccn1)C2.O=C(O)C(F)(F)F", "stereo": "configuration not stated", "percent effect": 13.07}
{"structure": "CCC(CC)NC(=O)c1nc2n(n1)-c1ccccc1S(=O)(=O)N2", "percent effect": 26.34}
{"structure": "CSCC[C@@H](CO)Nc1ccc(-c2nc(C3CC3)no2)cn1", "percent effect": 2.663}
{"structure": "Cc1ccccc1CNc1ccccc1OCC(=O)N1CCOCC1", "percent effect": 6.924}
{"structure": "O=C(O)C(F)(F)F.[H][C@@]12CCCO[C@]1([H])[C@@H](OCC)CN2CC1CCOCC1", "percent effect": -15.76}
{"structure": "CN(C)CCn1c(=O)oc2ccc(NC(=O)C3CCCO3)cc21", "stereo": "configuration not stated", "percent effect": 25.82}
{"structure": "CCNc1ncc(C(=O)NC(CC)c2ccnn2C)cn1", "stereo": "configuration not stated", "percent effect": 10.42}
{"structure": "O=C(O)C(F)(F)F.O=C(c1ccccc1F)N1CCC2(CC1)CC(Oc1ccccn1)CO2", "stereo": "configuration not stated", "percent effect": 20.39}
{"structure": "CN(C)CC1CN(Cc2coc(-c3cccc(F)c3)n2)CCO1", "stereo": "configuration not stated", "percent effect": -26.12}
{"structure": "CCN(Cc1noc(C(C)(C)C)n1)Cc1ccc(C#N)cc1F", "percent effect": 0.4103}
{"structure": "Cc1cccc(-c2noc(CN3CCCC3Cn3cncn3)n2)c1", "stereo": "configuration not stated", "percent effect": 7.33}
{"structure": "Cc1nc(C2CCCN2CCCn2c(=O)oc3ccccc32)no1", "stereo": "configuration not stated", "percent effect": -3.663}
{"structure": "Cc1nn(C(C)C)c(C)c1CN1CCN(C2CCCCC2)C(=O)C1.O=C(O)CC(O)(CC(=O)O)C(=O)O", "percent effect": 47.98}
{"structure": "CCN(Cc1nccn1C)C(=O)c1ccc(NCc2ccccc2)nc1", "percent effect": 9.368}
{"structure": "CCn1ccnc1CNCC(c1ccc(C)s1)N1CCOCC1", "stereo": "configuration not stated", "percent effect": 7.889}
{"structure": "CCc1ccsc1C(=O)N1CCN(CC(O)CC)CC1", "stereo": "configuration not stated", "percent effect": 12.63}
{"structure": "OCC1(O)CCCN(Cc2ccc(-c3cc[nH]n3)s2)CC1", "stereo": "configuration not stated", "percent effect": 7.725}
{"structure": "Cc1noc(C)c1C(=O)Nc1ccc2ncn(CC(C)C)c(=O)c2c1", "percent effect": -28.82}
{"structure": "Cc1c(Br)cccc1NC(=O)N(C)CCO", "percent effect": 18.43}
{"structure": "CCn1ccnc1CN(C)c1nc(-c2ccc(Cl)cc2)nc2c1CNC2", "percent effect": -17.3}
{"structure": "[H][C@]12CCN(Cc3cccc(C)c3)[C@@]1([H])C[C@H](C(=O)N1CCN(C)CC1)O2", "percent effect": -10.26}
{"structure": "COCc1ccccc1C(=O)NCCCN1CCCC1C(=O)N(C)C", "stereo": "configuration not stated", "percent effect": 4.58}
{"structure": "CCCNC(=O)CCNC1CSCCc2ccccc21", "stereo": "configuration not stated", "percent effect": 24.41}
{"structure": "Cc1cc(CN(C)C(=O)c2ccc(F)cc2Br)no1", "percent effect": 11.92}
{"structure": "O=C(O)C(F)(F)F.[H][C@@]12OCCN(c3ccc(C)cc3)[C@@]1([H])CC[C@H]2OCC(=O)N1CCCC1", "percent effect": 10.13}
{"structure": "Cc1nnc(N2CCCC3(CN(Cc4ccncc4)CCO3)C2)o1.O=C(O)C(F)(F)F.O=C(O)C(F)(F)F", "stereo": "configuration not stated", "percent effect": 16.91}
{"structure": "Cc1nc(-c2cccc(N3CCC(N4CCCC4)CC3)c2)cs1", "percent effect": 50.87}
{"structure": "O=C(O)C(F)(F)F.O=C(O)C(F)(F)F.O=C(O)C(F)(F)F.c1cncc(OCc2n[nH]c3c2CN(Cc2cccs2)C3)c1", "percent effect": -20.61}
{"structure": "CO[C@H]1CO[C@@]2(CCCN(C(=O)N3CCCC3)C2)C1", "percent effect": -7.709}
{"structure": "CCCOc1cc(C)ccc1NC(=O)NCCNC(=O)C(C)C", "percent effect": -31.24}
{"structure": "[H][C@@]12CS(=O)(=O)C[C@]1([H])N(C(=O)C1(C)CC1)CCN2Cc1[nH]cnc1C", "percent effect": 10.63}
{"structure": "[H][C@]12CC[C@]([H])(CN(Cc3cccnc3)C1)N(Cc1cccc(O)c1)C2", "percent effect": -9.316}
{"structure": "[H][C@@]12CNC[C@]1([H])CN(C(=O)C1CCCC1)C2", "percent effect": 25.56}
{"structure": "Cc1ccc(CN[C@@H]2COC[C@H]2c2ccc(F)cc2)cc1C.O=C(O)CC(O)(CC(=O)O)C(=O)O", "percent effect": 20.77}
{"structure": "CC(C)C(=O)NCCCn1ncc2c(Cl)cccc21", "percent effect": 13.81}
{"structure": "COCC1CN(S(C)(=O)=O)Cc2ncn(CC3CC3)c21", "stereo": "configuration not stated", "percent effect": -23.5}
{"structure": "[H][C@@]12CCCN1CCCN(C(=O)c1cnc(-c3ccc(C)cc3)nc1O)C2", "percent effect": 23.47}
{"structure": "CCN(Cc1noc(CC(C)C)n1)Cc1ccccc1OCC(=O)O", "percent effect": 9.939}
{"structure": "Cc1csc(N2CCCN(C(=O)c3csc(C)n3)CC2)n1", "percent effect": 20.78}
{"structure": "COc1ccc(OCc2cc(C(=O)N3CC=CC3)n[nH]2)c(Cl)c1", "percent effect": 40.41}
{"structure": "CCC(CNC(=O)c1ccccc1Br)N1CCc2ccccc2C1", "stereo": "configuration not stated", "percent effect": -6.545}
{"structure": "FC(F)(F)C1CCCn2c(CNCc3ccco3)nnc21", "stereo": "configuration not stated", "percent effect": -5.75}
{"structure": "CCSCC(C)NCc1cc(-c2ccco2)on1", "stereo": "configuration not stated", "percent effect": 5.053}
{"structure": "CCOCCNC(=O)c1ccn(S(=O)(=O)c2ccc(C)cc2)c1", "percent effect": -76.52}
{"structure": "COCC(O)CNC(=O)c1coc(COc2ccc3sc(C)nc3c2)n1", "stereo": "configuration not stated", "percent effect": -11.27}
{"structure": "COc1cc(CCC(=O)NCC2CC2)ccc1OCC(F)(F)F", "percent effect": -9.54}
{"structure": "Nc1cc(C(=O)N2CCC(Oc3cccc(C(F)(F)F)c3)CC2)ccn1", "percent effect": 27.33}
{"structure": "CC(NC(=O)NCCCn1ccnc1)c1ccc2c(c1)OCCCO2", "stereo": "configuration not stated", "percent effect": 26.18}
{"structure": "[H][C@@]12C[C@@H](OC)C[C@]1([H])CN(C(=O)c1cc(F)ccc1OC)C2", "percent effect": 16.53}
{"structure": "O=C(O)C(F)(F)F.O=C(O)C(F)(F)F.O=C(O)C(F)(F)F.c1cncc(C[C@H]2[C@H](N3CCOCC3)CCN2Cc2cccs2)c1", "percent effect": 17.84}
{"structure": "CS(=O)(=O)N[C@@H]1CN(Cc2ccc3ccccc3c2)C[C@H]1O", "percent effect": 29.15}

Once more, the final 7:

structure	percent effect
COCC(O)CNC(=O)c1coc(COc2ccc3sc(C)nc3c2)n1 (configuration not stated)	-11.27
COc1cc(CCC(=O)NCC2CC2)ccc1OCC(F)(F)F	-9.54
Nc1cc(C(=O)N2CCC(Oc3cccc(C(F)(F)F)c3)CC2)ccn1	27.33
CC(NC(=O)NCCCn1ccnc1)c1ccc2c(c1)OCCCO2 (configuration not stated)	26.18
[H][C@@]12C[C@@H](OC)C[C@]1([H])CN(C(=O)c1cc(F)ccc1OC)C2	16.53
O=C(O)C(F)(F)F.O=C(O)C(F)(F)F.O=C(O)C(F)(F)F.c1cncc(C[C@H]2[C@H](N3CCOCC3)CCN2Cc2cccs2)c1	17.84
CS(=O)(=O)N[C@@H]1CN(Cc2ccc3ccccc3c2)C[C@H]1O	29.15

Measurements from “University of Dundee, Small-Polar-MMV Screening Library” (2021), ChEMBL document CHEMBL3988442.